Measured values as given in PubChem BioAssay AID2685 (National Center for Advancing Translational Sciences (NCATS), 2010).
The list shows a part of the results. Further columns of the screen follow, without active or inactive calls. The list favours compounds with an active or inconclusive main result. Potencies come from curve fits of mixed quality, noted in brackets.

Experiment: qHTS Assay for Lipid Storage Modulators in Drosophila S3 Cells;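 on cell number change: cells counted by Cell Tracker Red CMTPX staining in the red channel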
Conditions: BODIPY lipid droplet fluorescence, 18-24 h; for cell number change: measured here: cell count max response, cells fed with added oleic acid
Method in brief: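 Laser-scanning cytometry quantifies lipid droplet accumulation (500–530 nm total intensity; droplet/cell object ratio) in oleic acid-fed (400 uM added) Drosophila S3 cells treated with a concentration series. 20 uM Triacsin C defined 100% inhibition.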

[1] = measured here: lipid fluorescence (Fed channel) AC50, cells fed with added oleic acid
[2] = measured here: cell number channel AC50, cells fed with added oleic acid

Row | Compound | cell number change [%] | AC50 [1] | AC50 [2]
1 | N#Cc1c(NCCO)nc(NCc2ccccc2)c2c1CCN(Cc1ccccc1)C2 | -15.6 | 29.1 µM [rising, single point] | 
2 | O=C(Nc1ccc2c(c1)OCO2)C1CCN(S(=O)(=O)c2cccs2)CC1 | -24.3 | 8.2 µM [falling, full curve, poor fit] | 
3 | COc1ccc(-c2[nH]n(-c3ccc([N+](=O)[O-])cc3)c(=O)c2C=NCc2ccc(F)cc2)cc1 | -33.2 |  | 10.3 µM [falling, partial curve, poor fit]
4 | Cc1ccc2cc(CN(C(=O)c3cccnc3)C(C)C)c(=O)[nH]c2c1 | 32.7 |  | 0.731 µM [rising, full curve, poor fit]
5 | O=C(Oc1ccc2ccc(O)cc2c1)C1CCCCC1 | -20 | 0.517 µM [falling, single point] | 
6 | COc1cccc(N2CCN(C(=O)c3ccc(Cl)c(NC4=NC5CS(=O)(=O)CC5S4)c3)CC2)c1 (stereo not drawn) |  | 29.1 µM [rising, single point] | 
7 | CCOC(=O)c1cnc2c(C)c(Cl)ccc2c1N1CCOCC1 | 9.96 |  | 
8 | O=C(Cn1nnc(-c2ccc(F)cc2)n1)N1CCCCC1 | -19.4 | 20.6 µM [falling, single point] | 
9 | COc1ccc(CCN(Cc2ccccn2)C(=S)Nc2ccccc2C)cc1OC | 55.6 | 29.1 µM [rising, partial curve, poor fit] | 29.1 µM [rising, single point]
10 | CC(=O)c1cccc(-n2nnnc2SCC(=O)Nc2cc(C)on2)c1 | -11.5 | 6.51 µM [rising, single point] | 
11 | O=C(c1cc2ccccc2oc1=O)N1CCCCCCC1 | 2.75 | 0.58 µM [falling, single point] | 
12 | Cc1ccc(CN2C(=O)N/C(=C\c3ccc(N4CCOCC4)cc3)C2=O)cc1 | -15.2 |  | 
13 | CCOC(=O)C1=C(O)c2ccccc2C(=O)/C1=C\c1ccc(C)cc1 | -97.6 | 7.31 µM [falling, partial curve] | 23.1 µM [falling, partial curve]
14 | CSCc1cc(N(C)C)nc(SCc2ccc(Cl)cc2Cl)n1 | -26.9 | 7.31 µM [falling, partial curve, poor fit] | 
15 | Cc1cc(Cl)ccc1Oc1nc(-c2ccc(F)cc2)ccc1C#N | 87.9 |  | 29.1 µM [rising, single point]
16 | Cc1c(O)nc(SCC(=O)Nc2ccc3c4c(cccc24)CC3)n(-c2ccc(F)cc2)c1=O | 32.1 |  | 5.8 µM [rising, partial curve]

Row | Compound | cell number change [%] | AC50 [1] | AC50 [2]
17 | Cc1nnc(NC(=O)CS(=O)(=O)Cc2ccccc2)s1 | 4.84 |  | 
18 | Cc1cc(C)n(C(=O)CSc2ccc(Cl)cc2)n1 | 3.07 |  | 
19 | C=CCN=C1CC(C)(C)C(C(=O)OC)C(O)=C1C(=O)CCC (stereo not drawn) | 14.8 | 0.517 µM [rising, full curve] | 
20 | Cc1nc2cc(-c3ccc(F)cc3)nn2c(N2CCOCC2)c1C | 6.03 |  | 
21 | Cc1ccc(CC(=O)N2CCN(c3ccc([N+](=O)[O-])cc3)CC2)cc1 |  | 20.6 µM [falling, partial curve] | 
22 | COc1ccccc1NC(=O)c1nnn(CC(=O)Nc2cccc(SC)c2)c1N |  |  | 5.17 µM [rising, partial curve]
23 | CN(CC(=O)c1c(N)n(C)c(=O)n(C)c1=O)c1ccccc1 | 1.91 |  | 0.116 µM [falling, full curve, poor fit]
24 | COc1ccc(NC(=O)CN(C)C(=O)c2ccc(N3CCOCC3)c([N+](=O)[O-])c2)cc1 |  |  | 0.00517 µM [falling, full curve, poor fit]
25 | O=c1c([N+](=O)[O-])c(N2CCCCCC2)c2ccccc2n1-c1ccccc1 | -67.2 | 23.1 µM [falling, partial curve] | 18.4 µM [falling, partial curve]
26 | COc1ccc(-c2cc3ccccc3n2CC(O)CNC(CO)(CO)CO)cc1 (stereo not drawn) | -8.67 |  | 
27 | COc1cc2c(cc1OC)CN(C(=O)c1ccc(S(=O)(=O)N3CCCC3)cc1)CC2 | 15.6 | 29.1 µM [rising, single point] | 
28 | C=CCn1c(-c2cccs2)nc2ccccc21 | -7.89 |  | 
29 | Cc1ccc(NC(=S)NCc2ccc(S(N)(=O)=O)cc2)cc1Cl | -17.3 | 0.651 µM [falling, single point] | 0.651 µM [falling, full curve, poor fit]
30 | CC(CC1C(C#N)=C(N)SC(N)=C1C#N)c1ccccc1 (stereo not drawn) | 14 | 4.61 µM [rising, partial curve, poor fit] | 
31 | COc1ccc2c(C=O)c[nH]c2c1 | 10.7 | 0.461 µM [rising, full curve] | 
32 | COC(/C(=N/O)c1ccc(Cl)cc1)c1ccccc1 (stereo not drawn) | -76.8 | 8.2 µM [falling, partial curve] | 10.3 µM [falling, partial curve]
